This is one part of the list.
biological target: T1, OsSMF1 (Oryza sativa, UniProt Q6ZLB0 1-436); test: protein-binding microarray (RPBM); PBS, 2% BSA, 51.3 ng/ul salmon testes DNA, 50 uM zinc acetate, 200 nM TF, 25 C, 1 h; high values mean tight binding; settings: protein: recombinant; tags: N-terminal polyhistidine and DsRed monomer fusion (pET32a); chain copies: 2; label: CyDye5-dUTP incorporated in the synthesized complementary strand; 3' TTTTT single-stranded linker to array surface; dsDNA, one strand shown
T1 sequence: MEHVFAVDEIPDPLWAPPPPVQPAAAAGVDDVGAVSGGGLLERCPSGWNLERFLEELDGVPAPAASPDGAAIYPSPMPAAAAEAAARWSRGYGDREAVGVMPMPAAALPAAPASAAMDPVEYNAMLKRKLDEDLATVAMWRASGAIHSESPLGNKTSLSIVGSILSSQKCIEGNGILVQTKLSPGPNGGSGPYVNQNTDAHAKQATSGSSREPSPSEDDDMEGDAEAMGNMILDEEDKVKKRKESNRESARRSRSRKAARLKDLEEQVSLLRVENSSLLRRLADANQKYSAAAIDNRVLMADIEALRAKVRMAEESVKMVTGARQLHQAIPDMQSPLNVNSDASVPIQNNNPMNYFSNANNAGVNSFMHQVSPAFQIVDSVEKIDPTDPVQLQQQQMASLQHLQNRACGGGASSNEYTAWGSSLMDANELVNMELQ
Method in brief: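 Binding signal here means per-feature fluorescence intensity in arbitrary units. The values were read on an Axon 4000B scanner after a custom Agilent array, double-stranded by primer extension with Cy5-dUTP, was incubated with 200 nM protein at 25 °C for 1 h in PBS with 2% BSA, salmon testes DNA and 50 µM zinc acetate, then washed. The proteins were transcription factors with an N-terminal polyhistidine tag and DsRed, expressed in E. coli BL21-CodonPlus and purified on Ni–NTA.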

Row | Sequence | binding signal
1 | TCTTCTCCGCTACATCAGGCGCTTCAACATGCCTATGGGTCGGAGTCACCTAGTGCAG | 22800 fluorescence intensity (a.u.)
2 | AGTTGTTCAAATTTGACTAAGGTAATATTCTACCGGCTTGCGGAGTCACCTAGTGCAG | 3400 fluorescence intensity (a.u.)
3 | ACTGCTCGAGCCATGCGCGTACAACCAGACGTGTATAAACCGGAGTCACCTAGTGCAG | 3500 fluorescence intensity (a.u.)
4 | GCTGGTGGCAACGCTCACCGTGGTCCCCGAGGGGAGCAAGCGGAGTCACCTAGTGCAG | 31200 fluorescence intensity (a.u.)
5 | AGCGGCCGACAAGAGAGGAGTTGGGTGGCAGCGGGTGACGCGGAGTCACCTAGTGCAG | 4290 fluorescence intensity (a.u.)
6 | TCGCCGAGAAGCCACGGCTAGTCACGTGTGTTGGAGGAGCCGGAGTCACCTAGTGCAG | 4700 fluorescence intensity (a.u.)
7 | CCAAACTCTATTTGTATCATAAGCCACGCATAAAATTTGCCGGAGTCACCTAGTGCAG | 3140 fluorescence intensity (a.u.)
8 | GAGGAAGAAGGATAGGGTGAGGATGACACGTGGGCCCCACCGGAGTCACCTAGTGCAG | 14300 fluorescence intensity (a.u.)
9 | GACTTGCCTTGCAACTGGAAAATGTCAGCACCTAAATCACCGGAGTCACCTAGTGCAG | 3480 fluorescence intensity (a.u.)
10 | ATGATATCTTGATCATCTGGACGTCATCTTCTCCCAAGTCCGGAGTCACCTAGTGCAG | 4770 fluorescence intensity (a.u.)
11 | ACAAGCACTGATTTTGGATGAGTTGTTGCCTGCAAGGCATCGGAGTCACCTAGTGCAG | 3600 fluorescence intensity (a.u.)
12 | CGAATGCGCGCGTTTCCGTCGTGTCAACCCGTCACGTTGCCGGAGTCACCTAGTGCAG | 5110 fluorescence intensity (a.u.)
13 | TTTGTCTTCTTACCTGCCAAGTCCTTGTCACTGTTGTAGCCGGAGTCACCTAGTGCAG | 5770 fluorescence intensity (a.u.)
14 | GGTGAGCAAGAAGTCCATCATGTGAACTTGAGCGTTAGCGCGGAGTCACCTAGTGCAG | 32500 fluorescence intensity (a.u.)
15 | CAGAGGCAATATATGCATGCCGCTAGTTTTGTCTACATCACGGAGTCACCTAGTGCAG | 3840 fluorescence intensity (a.u.)
16 | AGCCACGCGTGAGCAAAGCGCGAGCGTGCCAGAGTCCACGCGGAGTCACCTAGTGCAG | 3520 fluorescence intensity (a.u.)
17 | GCTCGATCGCTAGTCGTCGCCGTGTGTGTAATGCCATGGTCGGAGTCACCTAGTGCAG | 3220 fluorescence intensity (a.u.)
18 | TGGTCAGGTGGATCACGACGTGGACGTGCACAAACTCGACCGGAGTCACCTAGTGCAG | 5420 fluorescence intensity (a.u.)
19 | AACTATGTGAAAAGCATCAGCAGGCAGCAGCTCAAACACTCGGAGTCACCTAGTGCAG | 3260 fluorescence intensity (a.u.)
20 | AATCGATTTCTTCAAGAAGTGTTGTCATCAAATGGTGTTCCGGAGTCACCTAGTGCAG | 3520 fluorescence intensity (a.u.)
21 | CGGGGCCACCGTCATAGAGCGCGCAAGAGGCGTGACGTGTCGGAGTCACCTAGTGCAG | 20100 fluorescence intensity (a.u.)
22 | ATAATTATATTTACCACCATTGCCGTCAGGGCTCCGATGCCGGAGTCACCTAGTGCAG | 3820 fluorescence intensity (a.u.)
23 | GTGCACCGCGTGCACCGGTGCATGACGCCCTTGTGGCTCGCGGAGTCACCTAGTGCAG | 3760 fluorescence intensity (a.u.)
24 | TCTTAGTACCACTGACACGTGGGTCACGAATCATCATTGTCGGAGTCACCTAGTGCAG | 13100 fluorescence intensity (a.u.)
25 | AACCCAACCCAACCCAACCCTTCTCTCCACGCAGGCGCAGCGGAGTCACCTAGTGCAG | 3940 fluorescence intensity (a.u.)
26 | TGATATTCGGCGAGCACATGTGACATGTGCATGTTCTTATCGGAGTCACCTAGTGCAG | 4650 fluorescence intensity (a.u.)
27 | GTTCATAGTCCAAAATACTGTCAAGTAAATTCAAGTGATGCGGAGTCACCTAGTGCAG | 3160 fluorescence intensity (a.u.)

Row | Sequence | binding signal
28 | ACAGAGATCTGTTTCGAGAAGAGGAGACACGTGTCAGCGTCGGAGTCACCTAGTGCAG | 23800 fluorescence intensity (a.u.)
29 | CCACCGGCAGTGACGTCGACCCTGACGAGGACGCCGCCGCCGGAGTCACCTAGTGCAG | 6340 fluorescence intensity (a.u.)
30 | TATACGGACGTAGTACGAGTACAAATACGTCACAGGCTTGCGGAGTCACCTAGTGCAG | 5520 fluorescence intensity (a.u.)
31 | CACTTACAGCTGGACCCTATGATGCATGCATTGCATACCACGGAGTCACCTAGTGCAG | 3580 fluorescence intensity (a.u.)
32 | GCCCGGACCATCACACCCAATCGTGGCCGTCCACACCTCCCGGAGTCACCTAGTGCAG | 4060 fluorescence intensity (a.u.)
33 | AATAGAATTTTAAATCGAGCCTATCTCTCGTTGACTCAGACGGAGTCACCTAGTGCAG | 4970 fluorescence intensity (a.u.)
34 | TCCTCCGCACTCAGCCGTTGCACTCCACTCCATCCGCGCTCGGAGTCACCTAGTGCAG | 4130 fluorescence intensity (a.u.)
35 | TTAGATCCAGGGGTGTAAAGTTTTGGCGTGTCACATCAGGCGGAGTCACCTAGTGCAG | 4330 fluorescence intensity (a.u.)
36 | AATAGCTCTCTCCTCAGTCTCTCACGGCCTCATCACCACCCGGAGTCACCTAGTGCAG | 3170 fluorescence intensity (a.u.)
37 | GACTGCGATAGGCCTATATAAATTATCCGAGTACTAATACCGGAGTCACCTAGTGCAG | 38400 fluorescence intensity (a.u.)
38 | TGCTGGTCGTCCTCGCCGGAATGGTTCGATTATTGGTGGACGGAGTCACCTAGTGCAG | 3280 fluorescence intensity (a.u.)
39 | CAGTGGGTTGTGGGTGTGGTTGGTCGGCCAGCGCTGGAGCCGGAGTCACCTAGTGCAG | 3610 fluorescence intensity (a.u.)
40 | GGAATCCAGATCTCACCCACCCCACCCCACCCACACGACGCGGAGTCACCTAGTGCAG | 3970 fluorescence intensity (a.u.)
41 | TTAATAATAGCCATGTGCGTCATTAGACGGTAGTACGATCCGGAGTCACCTAGTGCAG | 5910 fluorescence intensity (a.u.)
42 | ATCTCTTATTTTCCATACGTATGTTTCCCAAACTACTAAACGGAGTCACCTAGTGCAG | 5600 fluorescence intensity (a.u.)
43 | GCATCCTCACGTGCATGTCTAACATAATATTTTGATCGATCGGAGTCACCTAGTGCAG | 3210 fluorescence intensity (a.u.)
44 | GTGAACTCGAGCCTAGATAGGAGAACTCACTTGAGGTTTGCGGAGTCACCTAGTGCAG | 24800 fluorescence intensity (a.u.)
45 | GTAGTTTGTGTGCGTGTTGTCGGCGTATGCATTTTAACTACGGAGTCACCTAGTGCAG | 3440 fluorescence intensity (a.u.)
46 | TTCATGTCGCAGTCCGATTCACACGCCGACCACGACGAGCCGGAGTCACCTAGTGCAG | 3200 fluorescence intensity (a.u.)
47 | TTCCTCCCCTTTCCCTCTCTGTCGGCGGCGTCAGCAGGCGCGGAGTCACCTAGTGCAG | 4580 fluorescence intensity (a.u.)
48 | CGGCCTCTTGCCCGTGAACGACAGCATCAGCACCGGCGCCCGGAGTCACCTAGTGCAG | 3300 fluorescence intensity (a.u.)
49 | GCTGCTCTCTCTCTCTCTCTCTCCCATCTCGTCCTCGCTTCGGAGTCACCTAGTGCAG | 19400 fluorescence intensity (a.u.)
50 | CTGCGATCAAAATCATCGTGGCAGTAAGTCAAGATGCCTGCGGAGTCACCTAGTGCAG | 3250 fluorescence intensity (a.u.)
51 | AGGAAAATCTTAGGTGAGTGATTGTACATCAATGTTGTCACGGAGTCACCTAGTGCAG | 3160 fluorescence intensity (a.u.)
52 | TTCTTCCCTTCACATAGGAATTGGATGATGTGGAGACTTTCGGAGTCACCTAGTGCAG | 7630 fluorescence intensity (a.u.)
53 | GCATCATCTTCCTTGCAACCACGTGGCTTGCTGACGGGTTCGGAGTCACCTAGTGCAG | 7760 fluorescence intensity (a.u.)
54 | CCCTCCGTCCCAAAATAAGTGTAGTTTTGTACTATTCACGCGGAGTCACCTAGTGCAG | 17100 fluorescence intensity (a.u.)

Rewritten with each value named: part of the list above
GCCCGGACCATCACACCCAATCGTGGCCGTCCACACCTCCCGGAGTCACCTAGTGCAG
  binding signal: 4060 fluorescence intensity (a.u.)
AATAGAATTTTAAATCGAGCCTATCTCTCGTTGACTCAGACGGAGTCACCTAGTGCAG
  binding signal: 4970 fluorescence intensity (a.u.)
